Measured values reported in the supplement of paper PMC11006884.
This list holds what a sample rich in targets with a hit left over. This is a noisy data set. Only a part is listed here, and it is no random draw.

The chains behind the UniProt entries cited, without tags or fusion partners. Where a name states a change or a piece, a line headed by the entry shows the natural chain unless it says otherwise.
UniProt Q9NSD9: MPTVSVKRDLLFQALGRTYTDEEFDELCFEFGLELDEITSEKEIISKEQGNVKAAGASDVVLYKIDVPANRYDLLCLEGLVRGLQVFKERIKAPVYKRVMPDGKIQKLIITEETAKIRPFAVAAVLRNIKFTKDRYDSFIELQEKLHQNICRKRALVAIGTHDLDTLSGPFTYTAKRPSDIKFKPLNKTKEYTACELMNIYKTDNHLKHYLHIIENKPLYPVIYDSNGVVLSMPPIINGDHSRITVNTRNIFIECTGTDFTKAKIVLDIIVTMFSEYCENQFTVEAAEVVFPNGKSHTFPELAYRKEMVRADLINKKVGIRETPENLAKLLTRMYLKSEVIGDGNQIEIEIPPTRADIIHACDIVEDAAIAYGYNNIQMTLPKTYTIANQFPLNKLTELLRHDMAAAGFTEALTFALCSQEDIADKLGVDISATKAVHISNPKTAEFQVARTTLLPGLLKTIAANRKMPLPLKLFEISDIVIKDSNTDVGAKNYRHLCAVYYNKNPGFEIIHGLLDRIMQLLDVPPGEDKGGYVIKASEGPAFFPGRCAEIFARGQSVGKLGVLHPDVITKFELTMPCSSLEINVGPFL
UniProt Q9NPG3, whole entry: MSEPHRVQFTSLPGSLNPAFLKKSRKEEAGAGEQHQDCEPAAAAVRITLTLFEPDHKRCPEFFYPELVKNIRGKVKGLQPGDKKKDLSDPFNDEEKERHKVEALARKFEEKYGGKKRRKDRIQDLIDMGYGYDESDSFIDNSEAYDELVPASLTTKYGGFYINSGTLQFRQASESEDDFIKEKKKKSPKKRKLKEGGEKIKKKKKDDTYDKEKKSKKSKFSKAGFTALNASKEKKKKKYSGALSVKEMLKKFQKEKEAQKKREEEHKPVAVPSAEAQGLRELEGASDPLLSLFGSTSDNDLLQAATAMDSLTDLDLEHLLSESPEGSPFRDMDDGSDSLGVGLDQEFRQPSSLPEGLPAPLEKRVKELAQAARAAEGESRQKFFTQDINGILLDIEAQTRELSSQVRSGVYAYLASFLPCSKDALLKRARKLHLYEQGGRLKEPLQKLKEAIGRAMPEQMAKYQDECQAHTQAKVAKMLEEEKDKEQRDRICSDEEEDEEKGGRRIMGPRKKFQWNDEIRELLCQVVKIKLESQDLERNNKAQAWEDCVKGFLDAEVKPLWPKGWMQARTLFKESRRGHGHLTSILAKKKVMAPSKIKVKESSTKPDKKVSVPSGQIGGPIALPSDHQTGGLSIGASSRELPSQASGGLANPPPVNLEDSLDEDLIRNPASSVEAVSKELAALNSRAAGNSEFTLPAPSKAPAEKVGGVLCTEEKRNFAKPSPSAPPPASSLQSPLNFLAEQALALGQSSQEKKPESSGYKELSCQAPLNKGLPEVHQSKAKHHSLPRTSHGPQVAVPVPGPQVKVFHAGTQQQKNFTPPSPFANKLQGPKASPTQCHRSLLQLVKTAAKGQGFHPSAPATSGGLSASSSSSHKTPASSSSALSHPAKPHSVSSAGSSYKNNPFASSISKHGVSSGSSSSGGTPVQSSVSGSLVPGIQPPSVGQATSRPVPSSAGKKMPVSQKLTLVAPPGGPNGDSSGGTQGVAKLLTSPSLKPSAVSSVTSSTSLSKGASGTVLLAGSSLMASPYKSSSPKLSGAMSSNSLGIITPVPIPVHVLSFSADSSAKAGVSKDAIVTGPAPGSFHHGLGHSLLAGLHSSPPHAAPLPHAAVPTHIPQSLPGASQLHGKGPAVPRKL
UniProt Q9HCK8: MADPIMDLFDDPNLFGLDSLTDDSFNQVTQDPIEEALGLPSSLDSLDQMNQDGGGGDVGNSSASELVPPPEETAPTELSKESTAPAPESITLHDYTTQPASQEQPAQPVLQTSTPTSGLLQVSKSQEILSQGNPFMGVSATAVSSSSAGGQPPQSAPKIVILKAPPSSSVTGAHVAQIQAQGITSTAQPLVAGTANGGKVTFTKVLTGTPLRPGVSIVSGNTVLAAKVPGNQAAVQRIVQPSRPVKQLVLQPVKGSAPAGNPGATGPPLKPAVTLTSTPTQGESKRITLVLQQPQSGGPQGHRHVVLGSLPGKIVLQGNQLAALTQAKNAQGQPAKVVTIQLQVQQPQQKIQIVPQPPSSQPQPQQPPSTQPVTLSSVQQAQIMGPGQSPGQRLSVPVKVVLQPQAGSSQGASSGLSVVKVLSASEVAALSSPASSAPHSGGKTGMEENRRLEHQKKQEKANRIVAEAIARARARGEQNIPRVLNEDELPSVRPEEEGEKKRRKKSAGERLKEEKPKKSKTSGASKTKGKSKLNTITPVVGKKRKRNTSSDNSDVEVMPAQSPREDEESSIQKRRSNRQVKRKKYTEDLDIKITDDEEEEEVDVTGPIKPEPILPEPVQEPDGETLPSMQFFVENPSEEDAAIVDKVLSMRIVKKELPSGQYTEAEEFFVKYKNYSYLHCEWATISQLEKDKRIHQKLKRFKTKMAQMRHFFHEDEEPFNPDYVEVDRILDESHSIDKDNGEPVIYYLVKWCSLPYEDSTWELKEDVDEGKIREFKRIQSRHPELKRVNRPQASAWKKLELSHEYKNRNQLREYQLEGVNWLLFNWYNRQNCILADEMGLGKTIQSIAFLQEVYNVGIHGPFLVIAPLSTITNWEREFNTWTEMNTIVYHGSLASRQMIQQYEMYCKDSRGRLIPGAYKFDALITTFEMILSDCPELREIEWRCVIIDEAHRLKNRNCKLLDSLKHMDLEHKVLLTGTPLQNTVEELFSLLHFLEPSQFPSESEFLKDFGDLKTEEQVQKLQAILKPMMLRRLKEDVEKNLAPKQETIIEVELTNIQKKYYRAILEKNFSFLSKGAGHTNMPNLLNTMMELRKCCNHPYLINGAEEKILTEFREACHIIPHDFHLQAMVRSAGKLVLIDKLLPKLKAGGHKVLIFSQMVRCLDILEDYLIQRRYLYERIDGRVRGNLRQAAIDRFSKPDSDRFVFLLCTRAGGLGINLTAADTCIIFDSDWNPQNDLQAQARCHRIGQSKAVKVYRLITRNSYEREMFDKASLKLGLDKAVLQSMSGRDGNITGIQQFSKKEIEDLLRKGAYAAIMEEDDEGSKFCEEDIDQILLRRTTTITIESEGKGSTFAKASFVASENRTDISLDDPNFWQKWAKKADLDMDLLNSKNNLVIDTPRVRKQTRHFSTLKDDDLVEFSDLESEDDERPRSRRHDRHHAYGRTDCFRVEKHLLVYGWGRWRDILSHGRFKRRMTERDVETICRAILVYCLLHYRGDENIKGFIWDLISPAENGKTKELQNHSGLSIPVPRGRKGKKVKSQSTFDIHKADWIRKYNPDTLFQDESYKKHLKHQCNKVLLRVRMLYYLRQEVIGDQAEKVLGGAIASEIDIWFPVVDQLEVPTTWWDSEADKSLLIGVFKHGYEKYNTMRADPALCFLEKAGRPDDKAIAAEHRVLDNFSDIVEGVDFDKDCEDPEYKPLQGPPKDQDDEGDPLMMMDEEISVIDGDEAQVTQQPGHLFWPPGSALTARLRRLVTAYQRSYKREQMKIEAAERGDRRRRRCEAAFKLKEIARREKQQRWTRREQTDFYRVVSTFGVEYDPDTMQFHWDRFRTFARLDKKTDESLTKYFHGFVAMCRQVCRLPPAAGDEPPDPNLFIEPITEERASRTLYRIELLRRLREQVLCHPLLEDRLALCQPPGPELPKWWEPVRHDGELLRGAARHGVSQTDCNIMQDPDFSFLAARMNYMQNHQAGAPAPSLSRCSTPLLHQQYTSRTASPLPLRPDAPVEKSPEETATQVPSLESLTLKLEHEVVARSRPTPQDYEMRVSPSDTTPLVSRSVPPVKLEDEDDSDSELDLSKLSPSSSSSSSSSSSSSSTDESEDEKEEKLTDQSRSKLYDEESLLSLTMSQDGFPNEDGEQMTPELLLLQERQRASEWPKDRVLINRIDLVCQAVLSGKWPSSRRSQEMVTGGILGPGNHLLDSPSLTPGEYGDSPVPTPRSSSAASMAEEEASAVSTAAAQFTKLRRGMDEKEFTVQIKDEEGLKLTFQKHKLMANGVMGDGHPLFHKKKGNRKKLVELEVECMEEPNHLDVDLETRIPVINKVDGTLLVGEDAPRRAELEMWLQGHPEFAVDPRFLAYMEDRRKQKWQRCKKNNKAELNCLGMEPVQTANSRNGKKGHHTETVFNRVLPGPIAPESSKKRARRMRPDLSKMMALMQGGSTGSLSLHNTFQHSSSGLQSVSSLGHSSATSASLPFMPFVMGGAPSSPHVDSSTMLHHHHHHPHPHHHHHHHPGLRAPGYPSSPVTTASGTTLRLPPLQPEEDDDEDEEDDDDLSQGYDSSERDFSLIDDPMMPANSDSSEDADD
UniProt Q9NPF0: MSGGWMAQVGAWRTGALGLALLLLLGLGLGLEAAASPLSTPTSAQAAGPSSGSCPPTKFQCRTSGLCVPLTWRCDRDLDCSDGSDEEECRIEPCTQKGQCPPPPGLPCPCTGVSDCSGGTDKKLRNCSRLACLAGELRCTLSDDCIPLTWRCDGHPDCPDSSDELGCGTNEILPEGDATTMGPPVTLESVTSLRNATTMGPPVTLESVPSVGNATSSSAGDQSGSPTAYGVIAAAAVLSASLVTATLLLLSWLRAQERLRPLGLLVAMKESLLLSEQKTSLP
UniProt Q9H7N4: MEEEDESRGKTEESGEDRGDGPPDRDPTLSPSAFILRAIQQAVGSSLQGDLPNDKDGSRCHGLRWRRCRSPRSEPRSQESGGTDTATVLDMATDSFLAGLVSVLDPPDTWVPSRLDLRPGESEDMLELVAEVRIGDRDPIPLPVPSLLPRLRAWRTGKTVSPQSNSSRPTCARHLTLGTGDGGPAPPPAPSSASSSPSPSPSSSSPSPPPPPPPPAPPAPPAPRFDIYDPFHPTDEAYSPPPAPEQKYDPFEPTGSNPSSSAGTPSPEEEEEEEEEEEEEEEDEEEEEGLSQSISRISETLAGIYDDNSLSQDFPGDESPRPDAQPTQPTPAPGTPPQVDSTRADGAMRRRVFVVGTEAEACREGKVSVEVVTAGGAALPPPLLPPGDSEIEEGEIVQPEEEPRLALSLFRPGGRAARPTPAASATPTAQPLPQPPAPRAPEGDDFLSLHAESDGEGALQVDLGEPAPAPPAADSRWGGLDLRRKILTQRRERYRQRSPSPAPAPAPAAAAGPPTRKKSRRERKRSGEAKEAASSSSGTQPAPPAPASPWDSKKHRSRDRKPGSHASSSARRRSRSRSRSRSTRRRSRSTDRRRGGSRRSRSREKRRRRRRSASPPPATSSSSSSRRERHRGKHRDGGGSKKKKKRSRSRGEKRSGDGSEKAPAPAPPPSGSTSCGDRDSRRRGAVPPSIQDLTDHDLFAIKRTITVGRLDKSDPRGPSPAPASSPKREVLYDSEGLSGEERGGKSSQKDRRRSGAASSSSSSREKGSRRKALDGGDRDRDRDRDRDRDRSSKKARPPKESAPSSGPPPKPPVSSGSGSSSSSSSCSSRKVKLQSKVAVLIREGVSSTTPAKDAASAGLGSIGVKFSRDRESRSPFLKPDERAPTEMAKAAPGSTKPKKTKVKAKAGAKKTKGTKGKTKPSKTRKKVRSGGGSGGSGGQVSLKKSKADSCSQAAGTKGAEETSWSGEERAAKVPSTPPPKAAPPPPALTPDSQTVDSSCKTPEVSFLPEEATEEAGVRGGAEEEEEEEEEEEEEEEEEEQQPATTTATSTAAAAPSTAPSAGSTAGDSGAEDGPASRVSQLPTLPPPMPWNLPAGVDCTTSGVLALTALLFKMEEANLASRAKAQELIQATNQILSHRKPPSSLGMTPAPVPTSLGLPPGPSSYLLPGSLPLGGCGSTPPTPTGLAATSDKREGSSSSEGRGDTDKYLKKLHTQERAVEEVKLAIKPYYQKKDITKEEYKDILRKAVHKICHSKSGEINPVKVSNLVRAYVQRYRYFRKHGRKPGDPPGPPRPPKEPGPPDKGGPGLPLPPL
UniProt Q9HB71, whole entry: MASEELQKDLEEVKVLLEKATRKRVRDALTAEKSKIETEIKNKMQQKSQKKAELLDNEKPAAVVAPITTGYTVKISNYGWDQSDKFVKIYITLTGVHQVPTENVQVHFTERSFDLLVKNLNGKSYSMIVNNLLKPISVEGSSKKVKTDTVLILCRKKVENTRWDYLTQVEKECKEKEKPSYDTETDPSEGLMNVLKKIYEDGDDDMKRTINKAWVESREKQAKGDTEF
UniProt Q9NQ29: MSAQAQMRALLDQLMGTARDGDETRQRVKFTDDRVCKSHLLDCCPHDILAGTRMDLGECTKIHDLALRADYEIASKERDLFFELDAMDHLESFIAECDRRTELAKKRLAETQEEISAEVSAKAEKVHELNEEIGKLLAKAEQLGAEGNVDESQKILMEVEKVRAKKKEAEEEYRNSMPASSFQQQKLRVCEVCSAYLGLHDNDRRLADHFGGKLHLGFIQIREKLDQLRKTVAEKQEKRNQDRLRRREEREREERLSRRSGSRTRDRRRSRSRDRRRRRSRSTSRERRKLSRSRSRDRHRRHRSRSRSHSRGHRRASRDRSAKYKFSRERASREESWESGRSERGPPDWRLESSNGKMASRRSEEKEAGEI

compound: COC(=O)/C=C/c1ccccc1 [methyl cinnamate]; assay: log2 ratio of iodoacetamide-alkyne labeling of the cysteine site, DMSO over compound (competition); higher = stronger covalent engagement of the cysteine by the compound, active = 1 or more; conditions: 500 µM; treatment time 1 h; system: HEK293T cell lysate
Summary of the method: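 Three replicates, each with duplicate channels, were prepared from HEK293T lysate (2 mg/mL) treated with vehicle or electrophile at 500 µM for 1 h at ambient temperature. Iodoacetamide alkyne was then applied for 1 h, and samples were clicked to sCIP-TMT reagents, pooled, trypsin-digested overnight at 37 °C, enriched on streptavidin, acid-eluted and analysed on Orbitrap Eclipse LC-MS/MS with FAIMS, with FragPipe quantification. The log2 competition ratio per cysteine is the mean control-channel divided by the mean compound-channel reporter intensity. Cysteines quantified in only one replicate were left out.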

log2 ratio of iodoacetamide-alkyne labeling, inactive:
FAM83D C19 (UniProt Q9H4H8) 0.478
SH3GLB2 C172 (UniProt Q9NR46) 0.116
FARSB C151 (UniProt Q9NSD9) -0.251
UBN1 C711 (UniProt Q9NPG3) 0.519
MLXIP C738 (UniProt Q9HAP2) -0.173
GEMIN7 C44 (UniProt Q9H840) 0.117
SFXN1 C190 (UniProt Q9H9B4) 0.0791
UCK1 C9 (UniProt Q9HA47) 0.343
XAB2 C117 (UniProt Q9HCS7) 0.12
MRPL47 C87 (UniProt Q9HD33) 0.0315
RPAP3 C519 (UniProt Q9H6T3) 0.192
BIRC6 C613 (UniProt Q9NR09) 0.363
XPO5 C1157 (UniProt Q9HAV4) 0.112
UniProt Q9NR48_C747 0.141
BRD7 C338 (UniProt Q9NPI1) 0.244
EXOSC3 C184 (UniProt Q9NQT5) 0.231
CLSPN C397 (UniProt Q9HAW4) 0.27
MRPL46 C52 (UniProt Q9H2W6) -0.163
CHD8 C1947 (UniProt Q9HCK8) 0.201
CD320 C67 (UniProt Q9NPF0) 0.336
CNOT10 C633 (UniProt Q9H9A5) 0.193
GPHN C284 (UniProt Q9NQX3) 0.275
DDX21 C682 (UniProt Q9NR30) -0.0208
TM9SF3 C428 (UniProt Q9HD45) -0.0132
SCAF1 C675 (UniProt Q9H7N4) 0.38
CACYBP C173 (UniProt Q9HB71) 0.374
MDN1 C4345 (UniProt Q9NU22) -0.11
EHMT1 C265 (UniProt Q9H9B1) -0.0759
RTN4 C1101 (UniProt Q9NQC3) 0.112
CHD8 C1161 (UniProt Q9HCK8) 0.233
LUC7L C97 (UniProt Q9NQ29) -0.153
ESF1 C462 (UniProt Q9H501) 0.296
SMC4 C271 (UniProt Q9NTJ3) -0.437
RAB18 C160 (UniProt Q9NP72) 0.305
UniProt Q9HBK9_C334 0.231
MDN1 C1839 (UniProt Q9NU22) -0.2
LUC7L C43 (UniProt Q9NQ29) 0.176

For convenience, some entries already given.
log2 ratio of iodoacetamide-alkyne labeling, inactive:
SMC4 C271 (UniProt Q9NTJ3) -0.437
RAB18 C160 (UniProt Q9NP72) 0.305
